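The test systems are human melanoma cell lines, treated with two drugs together for 72 h and then stained and imaged. Each value is the cleaved-PARP-positive fraction of nuclei relative to DMSO-treated wells, in %, so that 100 equals the control and higher values mean more apoptosis. Every drug was used at one fixed concentration, the higher of two screened. These are primary screening values without error estimates. The marker varies much from line to line, for technical or biological reasons.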
An unselected part of the screen is shown.

Drug key:
everolimus: CO[C@H]1C[C@@H]2CC[C@@H](C)[C@@](O)(O2)C(=O)C(=O)N2CCCC[C@H]2C(=O)O[C@H]([C@H](C)C[C@@H]2CC[C@@H](OCCO)[C@H](OC)C2)CC(=O)[C@H](C)/C=C(\C)[C@@H](O)[C@@H](OC)C(=O)[C@H](C)C[C@H](C)/C=C/C=C/C=C/1C at 0.1 µM
GSK650394: O=C(O)c1ccc(-c2c[nH]c3ncc(-c4ccccc4)cc23)cc1C1CCCC1 at 0.8 µM
T0901317: O=S(=O)(c1ccccc1)N(CC(F)(F)F)c1ccc(C(O)(C(F)(F)F)C(F)(F)F)cc1 at 7 µM
GW0742: Cc1cc(SCc2sc(-c3ccc(C(F)(F)F)c(F)c3)nc2C)ccc1OCC(=O)O at 10 µM
ABT-263: CC1(C)CCC(c2ccc(Cl)cc2)=C(CN2CCN(c3ccc(C(=O)NS(=O)(=O)c4ccc(N[C@H](CCN5CCOCC5)CSc5ccccc5)c(S(=O)(=O)C(F)(F)F)c4)cc3)CC2)C1 at 2 µM
PF-562271: CN(c1ncccc1CNc1nc(Nc2ccc3c(c2)CC(=O)N3)ncc1C(F)(F)F)S(C)(=O)=O at 0.4 µM
TCS401: O=C(O)C(=O)Nc1sc2c(c1C(=O)O)CCNC2 at 8.33 µM
docetaxel: CC(=O)O[C@@]12CO[C@@H]1C[C@H](O)[C@@]1(C)C(=O)[C@H](O)C3=C(C)[C@@H](OC(=O)[C@H](O)[C@@H](NC(=O)OC(C)(C)C)c4ccccc4)C[C@@](O)([C@@H](OC(=O)c4ccccc4)[C@H]21)C3(C)C at 0.0005 µM
CHIR-265: Cn1c(Nc2ccc(C(F)(F)F)cc2)nc2cc(Oc3ccnc(-c4ncc(C(F)(F)F)[nH]4)c3)ccc21 at 0.4 µM

Pair: everolimus + GW0742
WM3526: 268
MZ2-MEL: 128

Pair: docetaxel + GW0742
WM3526: 1380
MZ2-MEL: 1240

Pair: PF-562271 + docetaxel
WM3526: 2200
MZ2-MEL: 1050

Pair: T0901317 + TCS401
WM3526: 139
MZ2-MEL: 65.5

Pair: TCS401 + CHIR-265
WM3526: 609
MZ2-MEL: 373

Pair: everolimus + CHIR-265
WM3526: 843
MZ2-MEL: 365

Pair: CHIR-265 + GW0742
WM3526: 279
MZ2-MEL: 476

Pair: ABT-263 + PF-562271
WM3526: 483
MZ2-MEL: 632

Pair: T0901317 + docetaxel
WM3526: 1720
MZ2-MEL: 504

Pair: ABT-263 + CHIR-265
WM3526: 3300
MZ2-MEL: 2080

Pair: ABT-263 + GSK650394
WM3526: 924
MZ2-MEL: 1290

Pair: PF-562271 + GSK650394
WM3526: 110
MZ2-MEL: 596

Pair: everolimus + T0901317
WM3526: 231
MZ2-MEL: 104

Pair: TCS401 + PF-562271
WM3526: 152
MZ2-MEL: 323

Pair: PF-562271 + GW0742
WM3526: 104
MZ2-MEL: 274

Pair: ABT-263 + T0901317
WM3526: 376
MZ2-MEL: 316

Pair: docetaxel + CHIR-265
WM3526: 1210
MZ2-MEL: 1240

Pair: GSK650394 + everolimus
WM3526: 210
MZ2-MEL: 157

Pair: T0901317 + CHIR-265
WM3526: 847
MZ2-MEL: 394

Pair: docetaxel + GSK650394
WM3526: 1790
MZ2-MEL: 1190

Pair: TCS401 + GW0742
WM3526: 88.2
MZ2-MEL: 91.2

Pair: ABT-263 + TCS401
WM3526: 475
MZ2-MEL: 394

Pair: ABT-263 + everolimus
WM3526: 442
MZ2-MEL: 172

Pair: GSK650394 + TCS401
WM3526: 118
MZ2-MEL: 161

Pair: docetaxel + ABT-263
WM3526: 2470
MZ2-MEL: 5120

Pair: GW0742 + T0901317
WM3526: 85.4
MZ2-MEL: 98.0

Pair: PF-562271 + everolimus
WM3526: 121
MZ2-MEL: 116

Pair: GW0742 + ABT-263
WM3526: 496
MZ2-MEL: 573

Pair: GSK650394 + GW0742
WM3526: 147
MZ2-MEL: 120

Pair: TCS401 + docetaxel
WM3526: 865
MZ2-MEL: 1160

Pair: everolimus + docetaxel
WM3526: 2020
MZ2-MEL: 708

Pair: CHIR-265 + PF-562271
WM3526: 838
MZ2-MEL: 154

Pair: GSK650394 + CHIR-265
WM3526: 693
MZ2-MEL: 235

2 of the entries, repeated:

{"pair": "GSK650394 + everolimus", "WM3526": 210, "MZ2-MEL": 157}
{"pair": "GSK650394 + GW0742", "WM3526": 147, "MZ2-MEL": 120}

Source: doi:10.1371/journal.pone.0140310, primary screening data, rounded.